Test results published in the supplement of paper PMC11098740.
Some of the results follow. Repeats are few or missing, and single values can be far off.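 The assay uses a mixed pool of 41 HAP1 clones in which 61 cancer-associated proteins bear intron-inserted fluorescent tags, and clones are distinguished by image pattern. Results are compared against DMSO-treated control wells, and the BRD4 degrader dBET6 is the positive control.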

Chains of the proteins cited; added tags and fusions are not shown.
UniProt O14980, whole entry: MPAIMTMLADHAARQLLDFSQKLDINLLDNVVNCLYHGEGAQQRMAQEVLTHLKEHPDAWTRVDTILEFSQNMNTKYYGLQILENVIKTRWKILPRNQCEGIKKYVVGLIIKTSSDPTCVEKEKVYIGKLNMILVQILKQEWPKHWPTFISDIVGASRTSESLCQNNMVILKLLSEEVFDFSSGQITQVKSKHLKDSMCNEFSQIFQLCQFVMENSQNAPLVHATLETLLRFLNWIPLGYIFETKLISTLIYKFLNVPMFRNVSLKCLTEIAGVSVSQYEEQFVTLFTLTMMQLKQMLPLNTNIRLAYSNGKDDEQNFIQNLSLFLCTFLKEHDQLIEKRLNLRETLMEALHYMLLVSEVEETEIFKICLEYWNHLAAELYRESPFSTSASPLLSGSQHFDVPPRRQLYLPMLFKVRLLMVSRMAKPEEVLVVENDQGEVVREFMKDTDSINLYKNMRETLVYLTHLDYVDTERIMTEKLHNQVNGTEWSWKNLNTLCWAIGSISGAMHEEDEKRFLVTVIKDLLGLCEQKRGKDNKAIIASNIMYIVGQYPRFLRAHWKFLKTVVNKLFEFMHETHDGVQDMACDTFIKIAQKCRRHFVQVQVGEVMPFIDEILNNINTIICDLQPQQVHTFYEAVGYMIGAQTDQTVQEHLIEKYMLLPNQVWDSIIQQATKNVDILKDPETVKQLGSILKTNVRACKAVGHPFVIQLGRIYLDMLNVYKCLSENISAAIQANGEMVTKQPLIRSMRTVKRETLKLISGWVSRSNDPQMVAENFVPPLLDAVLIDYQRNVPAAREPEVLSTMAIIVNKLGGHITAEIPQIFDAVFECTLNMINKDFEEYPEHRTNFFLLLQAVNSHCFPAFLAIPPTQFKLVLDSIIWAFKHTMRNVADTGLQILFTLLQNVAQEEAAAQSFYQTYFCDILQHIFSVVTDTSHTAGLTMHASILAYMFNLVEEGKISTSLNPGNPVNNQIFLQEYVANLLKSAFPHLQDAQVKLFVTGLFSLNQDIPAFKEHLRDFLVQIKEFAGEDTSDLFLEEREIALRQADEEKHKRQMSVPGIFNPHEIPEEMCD

molecular target: XPO1 (intron 15 mScarlet tag, HAP1) (UniProt O14980); experiment: XPO1 fluorescence intensity change vs DMSO (log2 fold change); higher = more XPO1 protein; conditions: 6 h

| SMILES | XPO1 fluorescence intensity change (log2) |
| --- | --- |
| CC1=C(/C=C/C(C)=C/C=C/C(C)=C/C(=O)O)C(C)(C)CCC1 [Tretinoin] (20 µM) | 0.0309 |
| CC1=NN(c2ccc(C)c(C)c2)C(=O)/C1=N\Nc1cccc(-c2cccc(C(=O)O)c2)c1O [Eltrombopag] (10 µM) | 0.169 |
| COc1cc(C)c(/C=C/C(C)=C/C=C/C(C)=C/C(=O)O)c(C)c1C [Acitretin] (9.99941 µM) | -0.154 |
| C[C@@H]1O[C@@H]1P(=O)(O)O [Fosfomycin] (10 µM) | 0.11 |
| CCCC(CCC)C(=O)O [Valproic Acid] (10 µM) | 0.134 |
| CCCc1nc(C(C)(C)O)c(C(=O)O)n1Cc1ccc(-c2ccccc2-c2nnn[nH]2)cc1 [Olmesartan] (10 µM) | -0.0325 |
| COc1cc(C(=O)NCc2ccc(OCCN(C)C)cc2)cc(OC)c1OC [Trimethobenzamide] (10 µM) | -0.132 |
| CC1(C)NC(=O)N(c2ccc([N+](=O)[O-])c(C(F)(F)F)c2)C1=O [Nilutamide] (20 µM) | 0.105 |
| Cc1ccc(NC(=O)c2ccc(CN3CCN(C)CC3)cc2)cc1Nc1nc(-c2cccnc2)cs1 [Masitinib] (10 µM) | 0.118 |
